US6440979B1, “Aryl isoguanines” (Euro-Celtique, S.A., priority 1994, dated 2002)
Read-outs that look alike come from different tables or passages of the source. At least one compound was matched to its structure with a doubt left.

Tested on: PDE IV isolated from bovine tracheal smooth muscle
Assay: Type IV PDE inhibition, hydrolysis of [3H]-cyclic AMP
Format: biochemical
Description: The PDE IV inhibitory compounds of the present invention may be examined for their PDE IV inhibitory effects via the techniques set forth in the following examples, wherein the ability of the compounds to inhibit PDE IV isolated from bovine tracheal smooth muscle is set forth.
The Type IV PDE is isolated from bovine tracheal smooth muscle using a procedure similar to that previously described by Silver, P. J. et al., Eur. J. Pharmacol. 150:85,1988. Briefly, smooth muscle from bovine trachea is minced and homogenized using a polytron in 10 volumes of an extraction buffer containing 10 mm Tris-acetate (pH 7.5), 2 mM magnesium chloride, 1 mM dithiothreitol and 2,000 units/ml of aprotinin. This and all subsequent procedures are performed at 0-4° C. The homogenate is sonicated and then centrifuged at 48,000×g for 30 minutes. The resulting supernatant is applied to a DEAE Trisacryl M column previously equilibrated with sodium acetate and dithiothreitol. After applications of the sample, the column is washed with sodium acetate/dithiothreitol, after which the different forms of PDE are eluted from the column using a linear Tris-HCl/NaCl gradient. Fractions containing Type IV PDE are collected, dialyzed and concentrated to 14% of the original volume. […]
Enzyme activity is assessed by measuring the hydrolysis of [^3H]-cyclic AMP, as described by Thompson, W. J. et al., Adv. […]

Structure (SMILES) | IC50 (cyclic AMP 0.2 μM, 2.5% DMSO, read-out: PDE ACTIVITY IC50 PDE IV) | IC50 (read-out: concentration which yields 50% inhibition of PDE IV (IC50))
CC(C)c1nc2c([nH]1)c(=S)[nH]c(=O)n2-c1cccc(Cl)c1 [Ex. 11, 3-(3-Chlorophenyl)-8-isopropyl-6-thioxanthine] | 22.4 µM | 
COc1ccc(Cn2c(=O)[nH]c(=S)c3[nH]c(C(C)C)nc32)cc1OC1CCCC1 [Ex. 1, 3-(3-Cyclopentyloxy-4-methoxy-benzyl)-8-isopropyl-6-thioxanthine] |  | 1 µM
